Test results reported in the supplement of paper PMC10849652.
The list shows a part of the results.

Sequences of proteins named here, by UniProt entry; tags and fusion partners are left off. A change or cut given only in a name is not applied to a line headed by its entry.
UniProt A9UHW6: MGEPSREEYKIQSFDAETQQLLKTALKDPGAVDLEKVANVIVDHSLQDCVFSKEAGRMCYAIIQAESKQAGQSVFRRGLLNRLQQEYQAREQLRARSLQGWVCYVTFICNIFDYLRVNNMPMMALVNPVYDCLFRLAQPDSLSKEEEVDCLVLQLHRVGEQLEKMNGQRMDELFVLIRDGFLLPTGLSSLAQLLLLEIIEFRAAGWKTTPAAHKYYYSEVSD
UniProt Q96EY8: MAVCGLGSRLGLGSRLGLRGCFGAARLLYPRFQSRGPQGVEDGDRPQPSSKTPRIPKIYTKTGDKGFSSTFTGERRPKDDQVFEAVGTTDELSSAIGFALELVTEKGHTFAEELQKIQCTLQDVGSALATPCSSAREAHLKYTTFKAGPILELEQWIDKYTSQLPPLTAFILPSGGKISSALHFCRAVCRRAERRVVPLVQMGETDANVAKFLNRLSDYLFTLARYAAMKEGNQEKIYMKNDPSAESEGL
UniProt Q7Z3U7: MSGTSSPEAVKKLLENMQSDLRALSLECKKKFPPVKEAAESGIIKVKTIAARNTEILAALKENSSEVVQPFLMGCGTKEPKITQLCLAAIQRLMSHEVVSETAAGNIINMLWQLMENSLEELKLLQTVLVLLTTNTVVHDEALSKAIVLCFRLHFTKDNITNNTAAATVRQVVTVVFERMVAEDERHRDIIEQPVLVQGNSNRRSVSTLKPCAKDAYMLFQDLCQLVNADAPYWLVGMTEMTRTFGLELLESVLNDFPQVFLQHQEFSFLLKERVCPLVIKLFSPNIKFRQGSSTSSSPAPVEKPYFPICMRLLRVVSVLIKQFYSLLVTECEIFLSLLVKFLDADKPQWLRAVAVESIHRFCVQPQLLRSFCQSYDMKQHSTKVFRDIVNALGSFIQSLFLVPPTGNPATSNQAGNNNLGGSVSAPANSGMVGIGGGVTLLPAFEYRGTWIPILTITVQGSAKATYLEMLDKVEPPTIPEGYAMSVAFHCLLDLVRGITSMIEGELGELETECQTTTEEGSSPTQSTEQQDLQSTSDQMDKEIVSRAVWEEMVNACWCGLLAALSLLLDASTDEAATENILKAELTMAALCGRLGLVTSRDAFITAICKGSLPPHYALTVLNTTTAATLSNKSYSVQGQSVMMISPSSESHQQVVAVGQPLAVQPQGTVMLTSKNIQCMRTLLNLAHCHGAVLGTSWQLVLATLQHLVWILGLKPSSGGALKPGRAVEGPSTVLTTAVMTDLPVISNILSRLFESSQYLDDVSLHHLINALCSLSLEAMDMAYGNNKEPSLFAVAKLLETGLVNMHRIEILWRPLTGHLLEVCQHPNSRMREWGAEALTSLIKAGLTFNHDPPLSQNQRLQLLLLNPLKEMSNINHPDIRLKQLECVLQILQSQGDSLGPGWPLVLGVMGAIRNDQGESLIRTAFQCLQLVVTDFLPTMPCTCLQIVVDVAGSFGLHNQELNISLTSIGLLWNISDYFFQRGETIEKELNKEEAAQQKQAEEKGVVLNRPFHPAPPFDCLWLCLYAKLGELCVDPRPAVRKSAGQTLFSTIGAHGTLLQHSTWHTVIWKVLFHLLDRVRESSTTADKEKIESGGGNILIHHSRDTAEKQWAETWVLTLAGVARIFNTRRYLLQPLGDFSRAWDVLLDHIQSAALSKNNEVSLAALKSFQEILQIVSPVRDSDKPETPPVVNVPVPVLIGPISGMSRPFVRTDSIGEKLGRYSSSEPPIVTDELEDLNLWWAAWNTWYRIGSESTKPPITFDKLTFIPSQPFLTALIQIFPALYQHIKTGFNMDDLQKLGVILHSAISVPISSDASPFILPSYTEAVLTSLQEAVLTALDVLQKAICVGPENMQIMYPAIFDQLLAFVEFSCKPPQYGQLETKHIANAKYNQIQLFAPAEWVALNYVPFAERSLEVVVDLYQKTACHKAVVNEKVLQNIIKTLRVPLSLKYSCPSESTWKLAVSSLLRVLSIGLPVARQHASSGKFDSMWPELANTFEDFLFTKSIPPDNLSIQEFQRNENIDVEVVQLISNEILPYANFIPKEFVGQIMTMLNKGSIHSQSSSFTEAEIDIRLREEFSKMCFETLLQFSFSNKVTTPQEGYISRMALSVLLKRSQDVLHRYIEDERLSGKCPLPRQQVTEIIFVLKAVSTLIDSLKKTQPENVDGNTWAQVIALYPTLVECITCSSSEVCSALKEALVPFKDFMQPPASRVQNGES
UniProt O00566: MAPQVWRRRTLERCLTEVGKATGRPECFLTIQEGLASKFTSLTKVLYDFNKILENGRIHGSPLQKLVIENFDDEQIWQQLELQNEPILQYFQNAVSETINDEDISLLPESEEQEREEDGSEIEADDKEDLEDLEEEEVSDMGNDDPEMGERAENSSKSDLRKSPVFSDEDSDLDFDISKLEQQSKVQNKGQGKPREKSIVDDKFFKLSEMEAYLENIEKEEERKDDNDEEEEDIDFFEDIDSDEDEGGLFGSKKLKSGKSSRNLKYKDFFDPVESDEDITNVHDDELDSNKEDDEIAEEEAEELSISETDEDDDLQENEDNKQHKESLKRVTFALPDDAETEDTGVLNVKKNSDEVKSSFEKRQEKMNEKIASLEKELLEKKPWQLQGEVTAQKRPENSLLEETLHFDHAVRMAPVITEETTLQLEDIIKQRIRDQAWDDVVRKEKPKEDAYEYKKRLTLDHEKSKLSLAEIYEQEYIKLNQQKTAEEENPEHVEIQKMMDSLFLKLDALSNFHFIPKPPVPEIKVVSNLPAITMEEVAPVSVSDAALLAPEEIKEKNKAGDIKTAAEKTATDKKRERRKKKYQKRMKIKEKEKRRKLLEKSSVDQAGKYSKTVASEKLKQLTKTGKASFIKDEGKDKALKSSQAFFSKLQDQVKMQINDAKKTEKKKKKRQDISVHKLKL
UniProt Q9UBU8, whole entry, looked up: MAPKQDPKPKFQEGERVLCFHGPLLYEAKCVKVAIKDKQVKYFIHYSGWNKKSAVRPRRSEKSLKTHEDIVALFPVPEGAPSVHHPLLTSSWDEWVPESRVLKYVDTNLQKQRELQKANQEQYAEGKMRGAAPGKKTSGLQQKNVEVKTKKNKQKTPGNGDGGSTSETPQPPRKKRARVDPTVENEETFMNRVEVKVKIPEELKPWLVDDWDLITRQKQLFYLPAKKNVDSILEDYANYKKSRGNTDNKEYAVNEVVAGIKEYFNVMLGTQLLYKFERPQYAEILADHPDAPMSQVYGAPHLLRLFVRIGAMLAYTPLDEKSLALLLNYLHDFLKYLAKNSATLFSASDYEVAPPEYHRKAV
UniProt O96007: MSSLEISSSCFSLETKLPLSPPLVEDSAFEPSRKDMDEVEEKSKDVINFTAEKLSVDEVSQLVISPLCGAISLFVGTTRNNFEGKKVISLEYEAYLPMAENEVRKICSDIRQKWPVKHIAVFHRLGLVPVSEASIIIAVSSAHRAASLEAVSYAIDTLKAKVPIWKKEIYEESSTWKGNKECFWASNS
UniProt Q9HC36: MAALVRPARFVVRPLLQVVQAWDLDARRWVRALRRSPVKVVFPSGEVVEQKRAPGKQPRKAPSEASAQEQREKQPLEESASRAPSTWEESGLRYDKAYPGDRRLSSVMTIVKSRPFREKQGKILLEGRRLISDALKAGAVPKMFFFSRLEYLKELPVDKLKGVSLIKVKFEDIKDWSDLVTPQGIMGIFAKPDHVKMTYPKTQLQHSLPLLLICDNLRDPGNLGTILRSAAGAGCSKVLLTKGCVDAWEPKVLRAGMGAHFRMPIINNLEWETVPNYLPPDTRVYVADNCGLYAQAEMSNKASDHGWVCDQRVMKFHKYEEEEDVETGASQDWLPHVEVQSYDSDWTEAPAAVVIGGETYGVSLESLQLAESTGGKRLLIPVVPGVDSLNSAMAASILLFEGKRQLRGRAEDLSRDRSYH
UniProt Q96EN8: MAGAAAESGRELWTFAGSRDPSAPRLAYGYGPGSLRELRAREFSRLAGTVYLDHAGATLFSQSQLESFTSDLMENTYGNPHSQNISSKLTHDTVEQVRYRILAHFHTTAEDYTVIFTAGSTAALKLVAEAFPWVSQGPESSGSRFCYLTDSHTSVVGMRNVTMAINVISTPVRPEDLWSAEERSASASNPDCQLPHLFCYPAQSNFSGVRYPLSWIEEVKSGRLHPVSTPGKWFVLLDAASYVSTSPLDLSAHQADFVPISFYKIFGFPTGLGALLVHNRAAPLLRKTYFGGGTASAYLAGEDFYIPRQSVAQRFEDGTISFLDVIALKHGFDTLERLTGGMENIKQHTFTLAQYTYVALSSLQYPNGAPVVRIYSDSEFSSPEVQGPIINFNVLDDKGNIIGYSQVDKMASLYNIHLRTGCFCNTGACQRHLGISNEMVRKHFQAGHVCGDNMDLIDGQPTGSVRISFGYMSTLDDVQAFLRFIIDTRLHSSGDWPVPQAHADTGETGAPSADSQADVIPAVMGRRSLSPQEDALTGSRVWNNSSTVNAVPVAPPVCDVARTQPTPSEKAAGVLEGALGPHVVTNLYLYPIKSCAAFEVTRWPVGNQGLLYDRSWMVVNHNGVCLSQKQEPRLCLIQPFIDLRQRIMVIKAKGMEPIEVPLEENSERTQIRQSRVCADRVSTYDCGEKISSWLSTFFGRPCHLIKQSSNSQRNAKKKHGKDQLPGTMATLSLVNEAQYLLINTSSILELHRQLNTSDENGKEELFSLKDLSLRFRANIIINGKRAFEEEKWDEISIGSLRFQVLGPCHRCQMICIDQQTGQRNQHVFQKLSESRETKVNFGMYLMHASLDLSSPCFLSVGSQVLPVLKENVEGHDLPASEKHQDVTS
UniProt Q14149: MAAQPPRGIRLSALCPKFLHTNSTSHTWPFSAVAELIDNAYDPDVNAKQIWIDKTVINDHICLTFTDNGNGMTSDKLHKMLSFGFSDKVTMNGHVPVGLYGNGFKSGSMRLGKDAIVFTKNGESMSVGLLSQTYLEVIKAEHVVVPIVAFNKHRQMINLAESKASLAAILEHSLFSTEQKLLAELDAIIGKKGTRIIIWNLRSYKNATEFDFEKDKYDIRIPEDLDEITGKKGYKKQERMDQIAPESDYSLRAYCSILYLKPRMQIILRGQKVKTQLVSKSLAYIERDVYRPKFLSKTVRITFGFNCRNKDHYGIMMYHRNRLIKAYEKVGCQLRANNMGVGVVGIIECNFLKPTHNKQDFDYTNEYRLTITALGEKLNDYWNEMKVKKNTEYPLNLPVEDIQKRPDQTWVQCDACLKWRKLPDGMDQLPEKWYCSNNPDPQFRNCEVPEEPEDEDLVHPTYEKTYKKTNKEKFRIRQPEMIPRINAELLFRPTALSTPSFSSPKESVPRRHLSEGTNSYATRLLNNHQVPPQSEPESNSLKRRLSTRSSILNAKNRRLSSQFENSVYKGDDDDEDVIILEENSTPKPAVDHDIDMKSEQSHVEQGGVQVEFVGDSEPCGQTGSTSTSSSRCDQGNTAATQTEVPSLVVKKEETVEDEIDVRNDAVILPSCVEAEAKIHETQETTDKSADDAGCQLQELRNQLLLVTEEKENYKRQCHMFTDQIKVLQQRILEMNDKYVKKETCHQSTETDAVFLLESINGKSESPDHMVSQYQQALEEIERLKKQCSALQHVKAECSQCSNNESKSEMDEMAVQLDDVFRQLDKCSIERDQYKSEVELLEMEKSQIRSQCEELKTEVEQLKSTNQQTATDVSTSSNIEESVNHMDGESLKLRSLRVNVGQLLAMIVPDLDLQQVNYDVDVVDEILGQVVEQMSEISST
UniProt P25325: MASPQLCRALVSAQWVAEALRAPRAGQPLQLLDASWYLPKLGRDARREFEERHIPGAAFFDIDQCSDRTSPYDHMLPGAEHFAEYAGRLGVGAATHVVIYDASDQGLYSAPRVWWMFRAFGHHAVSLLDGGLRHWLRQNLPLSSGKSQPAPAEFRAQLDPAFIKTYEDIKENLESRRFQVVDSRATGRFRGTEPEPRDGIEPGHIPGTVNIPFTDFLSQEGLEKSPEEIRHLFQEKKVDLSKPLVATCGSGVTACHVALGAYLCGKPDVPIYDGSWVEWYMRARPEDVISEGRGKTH
UniProt O95563: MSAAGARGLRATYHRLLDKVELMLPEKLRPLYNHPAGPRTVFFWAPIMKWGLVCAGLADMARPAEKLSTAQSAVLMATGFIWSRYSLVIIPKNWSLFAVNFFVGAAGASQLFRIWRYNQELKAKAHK
UniProt Q96BX8: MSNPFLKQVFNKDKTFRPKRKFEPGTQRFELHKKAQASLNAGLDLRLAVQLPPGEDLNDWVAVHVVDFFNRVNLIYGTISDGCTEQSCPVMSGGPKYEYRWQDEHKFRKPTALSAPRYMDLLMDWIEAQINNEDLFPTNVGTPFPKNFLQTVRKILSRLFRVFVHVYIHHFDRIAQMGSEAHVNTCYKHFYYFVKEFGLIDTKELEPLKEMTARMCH

Tests used:
Experiment in all cases: log2 fold change, soluble protein after heating vs DMSO (PISA); higher = thermal stabilisation; K562 cells, 10 uM, 30 min; active = over 0.2 and 3.5 SD of the protein, either way, in both replicates (recomputed)
bafetinib = compound: Cc1ccc(NC(=O)c2ccc(CN3CC[C@H](N(C)C)C3)c(C(F)(F)F)c2)cc1Nc1nccc(-c2cncnc2)n1 [bafetinib]
In short: (§1)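 For each measurement, 10 μM compound was applied for 30 min to K562 cells at 2×10^6 cells/mL. Aliquots were heated for 3 min across 48°C-58°C, pooled, and extracted in PBS with 0.5% NP-40 at 4°C; the supernatant after 21,000xg for 90 min was soluble protein. This was quantified by TMTpro 16plex LC-MS/MS with channel sums equalised, and thermal stability was reported relative to control samples from duplicates, on a log2 fold-change scale.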

[1] = compound: Cc1cccc(CC(=O)N2CCc3c2ccc(-c2cn(C)c4ncnc(N)c24)c3F)n1
In short: as §1

nilotinib = compound: Cc1cn(-c2cc(NC(=O)c3ccc(C)c(Nc4nccc(-c5cccnc5)n4)c3)cc(C(F)(F)F)c2)cn1 [nilotinib]
In short: as §1

[2] = compound: Cc1nc(Nc2n[nH]c3c2CN(C(=O)N[C@H](CN(C)C)c2ccccc2)C3(C)C)c2sccc2n1
In short: as §1

dasatinib = compound: Cc1nc(Nc2ncc(C(=O)Nc3c(C)cccc3Cl)s2)cc(N2CCN(CCO)CC2)n1 [dasatinib]
In short: as §1

[3] = compound: Cc1ncc(-c2ccnc(Nc3ccc(S(C)(=O)=O)cc3)n2)n1C(C)C
In short: as §1

[4] = compound: Cn1cc(-c2ccc3c(c2)CCN3C(=O)Cc2cccc(C(F)(F)F)c2)c2c(N)ncnc21
In short: as §1

[5] = compound: Cn1cc(-c2ccc3nnc(C(F)(F)c4ccc5ncccc5c4)n3n2)cn1
In short: as §1

tipifarnib = compound: Cn1cncc1[C@@](N)(c1ccc(Cl)cc1)c1ccc2c(c1)c(-c1cccc(Cl)c1)cc(=O)n2C [tipifarnib]
In short: as §1

mubritinib = compound: FC(F)(F)c1ccc(/C=C/c2nc(COc3ccc(CCCCn4ccnn4)cc3)co2)cc1 [mubritinib]
In short: as §1

[6] = compound: NC(=O)Nc1cc(-c2cccc(F)c2)sc1C(=O)N[C@H]1CCCNC1
In short: as §1

[7] = compound: NC(=O)c1cnc(N[C@@H]2CCCC[C@@H]2N)nc1Nc1cccc(-n2nccn2)c1
In short: as §1

[8] = compound: NC1(c2ccc(-c3nc4ccn5c(=O)[nH]nc5c4cc3-c3ccccc3)cc2)CCC1
In short: as §1

[9] = compound: NCC(=O)Nc1ccc(-n2nc(C(F)(F)F)cc2-c2ccc3c(ccc4ccccc43)c2)cc1
In short: as §1

entinostat = compound: Nc1ccccc1NC(=O)c1ccc(CNC(=O)OCc2cccnc2)cc1 [entinostat]
In short: as §1

vorinostat = compound: O=C(CCCCCCC(=O)Nc1ccccc1)NO [vorinostat]
In short: as §1

citarinostat = compound: O=C(CCCCCCNC(=O)c1cnc(N(c2ccccc2)c2ccccc2Cl)nc1)NO [citarinostat]
In short: as §1

silmitasertib = compound: O=C(O)c1ccc2c(c1)nc(Nc1cccc(Cl)c1)c1ccncc12 [silmitasertib]
In short: as §1

[10] = compound: O=C1NC(=O)C(c2cnc3ccccn23)=C1c1cn2c3c(cc(F)cc13)CN(C(=O)N1CCCCC1)CC2
In short: as §1

[11] = compound: c1cc(OCCN2CCCCC2)cc(-c2n[nH]c3ccc(-c4nnc[nH]4)cc23)c1
In short: as §1

Measured: log2 fold change

MIF4GD isoform 3 (UniProt A9UHW6)
inactive: bafetinib -0.131 | [1] -0.066 | nilotinib 0.054 | [2] 0.073 | dasatinib 0.069 | [3] -0.048 | [4] 0.079 | [5] 0.005 | tipifarnib -0.068 | mubritinib 0.043 | [6] -0.054 | [7] -0.085 | [8] 0.015 | [9] 0.006 | entinostat -0.013 | vorinostat -0.101 | citarinostat 0 | silmitasertib 0.018 | [10] 0.046 | [11] -0.033

MMAB (UniProt Q96EY8)
inactive: bafetinib -0.047 | [1] -0.041 | nilotinib -0.025 | [2] 0.03 | dasatinib -0.014 | [3] 0.005 | [4] 0.046 | [5] -0.038 | tipifarnib -0.032 | mubritinib -0.024 | [6] -0.055 | [7] 0.004 | [8] -0.007 | [9] 0.004 | entinostat 0.005 | vorinostat 0.009 | citarinostat 0.009 | silmitasertib -0.021 | [10] -0.066 | [11] 0.011

MON2 isoform 5 (UniProt Q7Z3U7)
inactive: bafetinib -0.001 | [1] 0.026 | nilotinib -0.053 | [2] -0.012 | dasatinib -0.132 | [3] 0.082 | [4] 0.008 | [5] 0.006 | tipifarnib -0.071 | mubritinib -0.03 | [6] -0.023 | [7] 0.012 | [8] -0.107 | [9] -0.038 | entinostat -0.003 | vorinostat 0.097 | citarinostat 0.056 | silmitasertib 0.021 | [10] -0.006 | [11] -0.003

MPHOSPH10 (UniProt O00566)
inactive: bafetinib 0.137 | [1] -0.045 | nilotinib -0.055 | [2] -0.028 | dasatinib 0.138 | [3] -0.199 | [4] -0.259 | [5] -0.001 | tipifarnib 0.246 | mubritinib -0.069 | [6] 0.089 | [7] 0.016 | [8] 0.186 | [9] 0.064 | entinostat 0.017 | vorinostat 0.045 | citarinostat 0.062 | silmitasertib 0.112 | [10] 0.067 | [11] -0.169

MORF4L1 isoform 2 (UniProt Q9UBU8)
inactive: bafetinib 0.021 | [1] 0.021 | nilotinib -0.031 | [2] -0.007 | dasatinib 0.01 | [3] -0.085 | [4] -0.025 | [5] -0.063 | tipifarnib -0.007 | mubritinib 0 | [6] -0.047 | [7] -0.077 | [8] -0.071 | [9] -0.041 | entinostat -0.081 | vorinostat 0.053 | citarinostat -0.208 | silmitasertib 0.016 | [10] -0.117 | [11] -0.037

MOCS2 (UniProt O96007)
inactive: bafetinib -0.065 | [1] -0.022 | nilotinib 0 | [2] 0.012 | dasatinib 0.039 | [3] 0.01 | [4] 0.035 | [5] 0.032 | tipifarnib -0.038 | mubritinib -0.006 | [6] 0.041 | [7] -0.049 | [8] 0.008 | [9] -0.03 | entinostat -0.011 | vorinostat 0.037 | citarinostat 0.05 | silmitasertib -0.01 | [10] -0.048 | [11] 0.01

MRPL4 (UniProt Q9BYD3)
inactive: bafetinib 0.129 | [1] 0.053 | nilotinib -0.001 | [2] 0.061 | dasatinib 0.071 | [3] 0.036 | [4] -0.164 | [5] -0.078 | tipifarnib 0.047 | mubritinib 0.062 | [6] 0.032 | [7] 0.028 | [8] -0.01 | [9] 0.056 | entinostat 0.114 | vorinostat 0.041 | citarinostat -0.066 | silmitasertib 0.006 | [10] 0.087 | [11] -0.11

MRPL32 (UniProt Q9BYC8)
inactive: bafetinib -0.01 | [1] -0.089 | nilotinib 0.073 | [2] 0.071 | dasatinib 0.152 | [3] -0.016 | [4] -0.217 | [5] -0.071 | tipifarnib 0.157 | mubritinib -0.184 | [6] 0 | [7] 0.097 | [8] 0.189 | [9] 0.139 | entinostat -0.027 | vorinostat 0.035 | citarinostat -0.017 | silmitasertib 0.04 | [10] 0.001 | [11] -0.038

Reprinted from the results shown (2 entries):
MOCS2 (UniProt O96007)
inactive: bafetinib -0.065 | [1] -0.022 | nilotinib 0 | [2] 0.012 | dasatinib 0.039 | [3] 0.01 | [4] 0.035 | [5] 0.032 | tipifarnib -0.038 | mubritinib -0.006 | [6] 0.041 | [7] -0.049 | [8] 0.008 | [9] -0.03 | entinostat -0.011 | vorinostat 0.037 | citarinostat 0.05 | silmitasertib -0.01 | [10] -0.048 | [11] 0.01

MRPL4 (UniProt Q9BYD3)
inactive: bafetinib 0.129 | [1] 0.053 | nilotinib -0.001 | [2] 0.061 | dasatinib 0.071 | [3] 0.036 | [4] -0.164 | [5] -0.078 | tipifarnib 0.047 | mubritinib 0.062 | [6] 0.032 | [7] 0.028 | [8] -0.01 | [9] 0.056 | entinostat 0.114 | vorinostat 0.041 | citarinostat -0.066 | silmitasertib 0.006 | [10] 0.087 | [11] -0.11

Continuation.

MRPL54 (UniProt Q6P161)
inactive: bafetinib -0.062 | [1] 0.065 | nilotinib 0.062 | [2] 0.082 | dasatinib 0.115 | [3] -0.089 | [4] -0.086 | [5] -0.019 | tipifarnib 0.271 | mubritinib -0.053 | [6] 0 | [7] 0.005 | [8] -0.001 | [9] 0.053 | entinostat -0.08 | vorinostat -0.062 | citarinostat -0.075 | silmitasertib 0.019 | [10] 0.152 | [11] -0.102

MRM3 (UniProt Q9HC36)
inactive: bafetinib 0.316 | [1] -0.018 | nilotinib 0.056 | [2] 0.159 | dasatinib 0.208 | [3] 0.019 | [4] -0.279 | [5] -0.055 | tipifarnib 0.235 | mubritinib -0.306 | [6] 0.096 | [7] 0.032 | [8] 0.354 | [9] 0.118 | entinostat -0.081 | vorinostat 0.004 | citarinostat -0.097 | silmitasertib 0.151 | [10] 0.211 | [11] -0.161

MOCOS (UniProt Q96EN8)
inactive: bafetinib -0.031 | [1] -0.026 | nilotinib 0.018 | [2] -0.062 | dasatinib -0.029 | [3] -0.017 | [4] 0.034 | [5] 0.049 | tipifarnib 0.013 | mubritinib 0.027 | [6] -0.057 | [7] 0.024 | [8] -0.068 | [9] -0.01 | entinostat -0.022 | vorinostat 0.01 | citarinostat -0.118 | silmitasertib 0.093 | [10] -0.135 | [11] -0.045

MORC3 (UniProt Q14149)
inactive: bafetinib -0.014 | [1] 0.009 | nilotinib -0.173 | [2] 0.09 | dasatinib -0.154 | [3] 0.105 | [4] 0.011 | [5] -0.026 | tipifarnib 0.006 | mubritinib -0.212 | [6] 0.024 | [7] -0.047 | [8] -0.241 | [9] -0.22 | entinostat -0.021 | vorinostat -0.159 | citarinostat -0.118 | silmitasertib 0.201 | [10] -0.066 | [11] 0.089

MPST isoform 2 (UniProt P25325)
inactive: bafetinib 0.02 | [1] -0.021 | nilotinib -0.017 | [2] 0.071 | dasatinib 0.01 | [3] 0.025 | [4] -0.016 | [5] 0.002 | tipifarnib 0.004 | mubritinib -0.106 | [6] -0.016 | [7] -0.066 | [8] 0.041 | [9] -0.024 | entinostat -0.011 | vorinostat -0.057 | citarinostat 0.035 | silmitasertib 0.014 | [10] 0.144 | [11] -0.009

MPC2 (UniProt O95563)
inactive: bafetinib -0.03 | [1] -0.004 | nilotinib -0.003 | [2] 0.008 | dasatinib 0.011 | [3] -0.024 | [4] 0.005 | [5] 0.055 | tipifarnib 0.006 | mubritinib 0.035 | [6] 0.001 | [7] -0.012 | [8] -0.034 | [9] -0.016 | entinostat -0.018 | vorinostat 0.024 | citarinostat 0.026 | silmitasertib 0.009 | [10] 0.006 | [11] -0.065

MRPL46 (UniProt Q9H2W6)
inactive: bafetinib 0.06 | [1] 0.014 | nilotinib -0.03 | [2] -0.002 | dasatinib -0.006 | [3] -0.016 | [4] -0.019 | [5] 0.06 | tipifarnib 0.095 | mubritinib -0.003 | [6] -0.067 | [7] 0.009 | [8] 0.023 | [9] -0.014 | entinostat -0.003 | vorinostat 0.011 | citarinostat 0.007 | silmitasertib 0.005 | [10] 0.028 | [11] -0.062

MOB3A (UniProt Q96BX8)
inactive: bafetinib 0.036 | [1] -0.003 | nilotinib 0.041 | [2] -0.091 | dasatinib -0.303 | [3] 0.032 | [4] 0.023 | [5] -0.145 | tipifarnib -0.137 | mubritinib 0.127 | [6] 0.396 | [7] -0.21 | [8] -0.178 | [9] 0.055 | entinostat 0.227 | vorinostat 0.086 | silmitasertib 0.032
